Assay results: ChEMBL document CHEMBL1795257, “Synthesis of new opioid derivatives with a propellane skeleton and their pharmacology: part 1” (Bioorg Med Chem Lett, 2011)

Assay: Displacement of [3H]NTI from delta opioid receptor in guinea pig forebrain homogenate by scintillation counting
Assay type: tissue-based, Cavia porcellus, Brain

**Q.** With `CN1CC[C@]23c4c5ccc(O)c4O[C@H]2[C@@H](O)C=C[C@H]3[C@H]1C5` [MORPHINE] as the compound, how does the Ki read?
**A.** 0.14 µM
